Source: the supplement of paper PMC7125110
± gives the standard error. Many entries were measured with a wide error.

B1: glmS ribozyme (parent)
chain: AUAAAAGCGCCAGAACUACAGAAAUGUAGUUGACGAGGAGGAGGUUUAUCGAAUUUUCGGCGGAUGCCUCCAAA

Variants of: B1
Assay: self-cleavage kobs at 2500 uM GlcN6P; higher = faster cleavage; RNA array
Conditions: with glucosamine-6-phosphate
How it was run: (§1)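 kcat and KM were obtained from weighted Michaelis–Menten fits across concentrations of kobs values. Those came from one- or two-exponential decay fits to per-tile medians normalised to baseline and to non-cleaving reference variants. The variants were barcoded ribozymes transcribed in situ by E. coli RNA polymerase on sequenced MiSeq chips and tracked through a hybridised Cy3 probe at 37 °C, with 40 μM to 10 mM glucosamine-6-phosphate in HEPES/KCl/Mg(OAc)2 buffer flowed in.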

Variant | self-cleavage kobs at 2500 uM GlcN6P
A6G A36C C50G | 3.21e-05 ± 2.3e-05 s⁻¹
C8U A33G G38A G59A C70G | 4.19e-05 ± 2.5e-05 s⁻¹
A6G U30A A53U | 3.29e-05 ± 1.8e-05 s⁻¹
G7U C70G | 0.00029 ± 0.00021 s⁻¹
G9U C50G U54A | 4.72e-05 ± 2.6e-05 s⁻¹
C11A A15U C70G | 4.55e-05 ± 2.6e-05 s⁻¹
C10A A12U C68G | 3.71e-05 ± 2.6e-05 s⁻¹
G9A C50G | 5.31e-05 ± 3.9e-05 s⁻¹
C11G A15U U54A C70A | 4.07e-05 ± 2.6e-05 s⁻¹
U57A C61G C67U U69A | 3.66e-05 ± 3.3e-05 s⁻¹
G7U A48U C50G U54G | 4.99e-05 ± 3.5e-05 s⁻¹
C58U U69A | 3.95e-05 ± 2e-05 s⁻¹
C10G A52G C68G C71U | 2.65e-05 ± 2e-05 s⁻¹
A6G C50G U54C | 3.58e-05 ± 1.9e-05 s⁻¹
A6U C50A U56C U57C C70G | 2.44e-05 ± 2.4e-05 s⁻¹
C10U C50G C68U C70G | 0.000236 ± 0.00013 s⁻¹
G7A C50G U54C G63A | 6.37e-05 ± 3.4e-05 s⁻¹
A12C A14U C16U U46G | 2.8e-05 ± 2.3e-05 s⁻¹
A6C A12U A14G C16U | 9.97e-05 ± 5.8e-05 s⁻¹
C10G | < 1e-05 s⁻¹

Exported field by field: entries from further up
G7U C70G
  self-cleavage kobs at 2500 uM GlcN6P: 0.00029 ± 0.00021 s⁻¹
C10G A52G C68G C71U
  self-cleavage kobs at 2500 uM GlcN6P: 2.65e-05 ± 2e-05 s⁻¹

Next part.

Variant | self-cleavage kobs at 2500 uM GlcN6P
A12G A39G C70G | 5.25e-05 ± 2.8e-05 s⁻¹
C10U G21U | 2.82e-05 ± 1.7e-05 s⁻¹
C10U U69C | 2.39e-05 ± 1.4e-05 s⁻¹
G7C C34A A48G U56G C71U | < 1e-05 s⁻¹
A12G A15U G40C | 2.99e-05 ± 1.7e-05 s⁻¹
C10G U47G C70U C71G | 2.57e-05 ± 2e-05 s⁻¹
A6G A14G C16G A53U | 5.59e-05 ± 2.9e-05 s⁻¹
C8G U30G G37A G66A U69G | 2.43e-05 ± 1.5e-05 s⁻¹
C10A C71G | 3.76e-05 ± 2e-05 s⁻¹
A6U A15C C70U | 1.68e-05 ± 1.5e-05 s⁻¹
C10U U56A G62A U65A U69G | 3.13e-05 ± 2.1e-05 s⁻¹
A6C U47G | 2.07e-05 ± 1.7e-05 s⁻¹
C10A G59U | 1.55e-05 ± 1.3e-05 s⁻¹
G7A G13A U30A U31G C50A C68G | 2.95e-05 ± 2.8e-05 s⁻¹
A6C C67A | 2.36e-05 ± 1.7e-05 s⁻¹
C11A U54A C68U | 4.31e-05 ± 2.4e-05 s⁻¹
A6U G21A C67G | 3.34e-05 ± 2.3e-05 s⁻¹
A6G U57A C68G | 0.000122 ± 8.2e-05 s⁻¹
C10A G35A A42U U57G | 0.000153 ± 8.9e-05 s⁻¹
A12G A15C G40U | 2.68e-05 ± 2.4e-05 s⁻¹

Variants of: B1
Assay: self-cleavage kobs at 160 uM GlcN6P; higher = faster cleavage; RNA array
Conditions: with glucosamine-6-phosphate
How it was run: as §1

Variant | self-cleavage kobs at 160 uM GlcN6P
U45G A52G | 3.15e-05 ± 3.1e-05 s⁻¹
U46G C50A C67G | 5.25e-05 ± 2.9e-05 s⁻¹
C50U | < 1e-05 s⁻¹
G29C C58A | 2.02e-05 ± 1.8e-05 s⁻¹
G51U C70G | 2.28e-05 ± 1.2e-05 s⁻¹
C50G C68G | 0.00095 ± 0.00049 s⁻¹
G44U U55G | 3.4e-05 ± 2.2e-05 s⁻¹
G37A U55C U56G | 1.37e-05 ± 1.3e-05 s⁻¹
G29A U31G U54G | 3.14e-05 ± 2.6e-05 s⁻¹
U57A C61G C67U U69A | 5.79e-05 ± 3.1e-05 s⁻¹
A53G G66C C71G | 2.85e-05 ± 2.1e-05 s⁻¹
U55A C68A C71G | 4.15e-05 ± 2.6e-05 s⁻¹
U65G U69C C71U | 2.82e-05 ± 1.9e-05 s⁻¹
G37A A53C | 1.91e-05 ± 1.2e-05 s⁻¹
C58U U69A | 2.41e-05 ± 1.9e-05 s⁻¹
U31G G66C | 1.96e-05 ± 1.7e-05 s⁻¹
G59C A64G C67A | 0.00197 ± 0.0012 s⁻¹
U30C C71G | 2.73e-05 ± 1.8e-05 s⁻¹
U46G G66U C67U | 2.54e-05 ± 2.5e-05 s⁻¹
G32C U69G | 0.00034 ± 0.00022 s⁻¹
U30G U46A G66C | 2.07e-05 ± 1.9e-05 s⁻¹

Variant | self-cleavage kobs at 160 uM GlcN6P
G40C C70A | 3.08e-05 ± 1.8e-05 s⁻¹
G41U U65A | 2.12e-05 ± 1.1e-05 s⁻¹
G38U U49A A53C C70G | 2.74e-05 ± 2.1e-05 s⁻¹
G32U A53G G59C A64G | 4.19e-05 ± 3.4e-05 s⁻¹
U31C U47C | 5.21e-05 ± 2.7e-05 s⁻¹
C50U U54A C70U | 4.13e-05 ± 2.3e-05 s⁻¹
A42U U54G | 3.39e-05 ± 2e-05 s⁻¹
G32U U47G | 2.13e-05 ± 1.8e-05 s⁻¹
A48U U69C | 1.82e-05 ± 1.3e-05 s⁻¹
A33C U55G | 2.27e-05 ± 1.6e-05 s⁻¹
G32U C70A | 9.5e-05 ± 5.9e-05 s⁻¹
G40A C67A | 3.11e-05 ± 2.2e-05 s⁻¹
U49G U69G | 3.99e-05 ± 2.8e-05 s⁻¹
A39C A52G | 2.3e-05 ± 2e-05 s⁻¹
U31G U56G C71A | 2.73e-05 ± 1.8e-05 s⁻¹
U31C U46A | 2.28e-05 ± 1.6e-05 s⁻¹
U57A C70G | 2.33e-05 ± 1.3e-05 s⁻¹
G59C C68A | 1.76e-05 ± 1.7e-05 s⁻¹
G29U C58U C68U | 3.51e-05 ± 2.3e-05 s⁻¹
A33G C67G | 1.91e-05 ± 1.8e-05 s⁻¹

A second format for part of the listing above:
Variant	self-cleavage kobs at 160 uM GlcN6P
U46G G66U C67U	2.54e-05 ± 2.5e-05 s⁻¹
G32C U69G	0.00034 ± 0.00022 s⁻¹
U30G U46A G66C	2.07e-05 ± 1.9e-05 s⁻¹
G40C C70A	3.08e-05 ± 1.8e-05 s⁻¹
G41U U65A	2.12e-05 ± 1.1e-05 s⁻¹
G38U U49A A53C C70G	2.74e-05 ± 2.1e-05 s⁻¹
G32U A53G G59C A64G	4.19e-05 ± 3.4e-05 s⁻¹
U31C U47C	5.21e-05 ± 2.7e-05 s⁻¹
C50U U54A C70U	4.13e-05 ± 2.3e-05 s⁻¹
A42U U54G	3.39e-05 ± 2e-05 s⁻¹
A48U U69C	1.82e-05 ± 1.3e-05 s⁻¹
A33C U55G	2.27e-05 ± 1.6e-05 s⁻¹
G32U C70A	9.5e-05 ± 5.9e-05 s⁻¹
G40A C67A	3.11e-05 ± 2.2e-05 s⁻¹
U49G U69G	3.99e-05 ± 2.8e-05 s⁻¹
A39C A52G	2.3e-05 ± 2e-05 s⁻¹
U31G U56G C71A	2.73e-05 ± 1.8e-05 s⁻¹
U31C U46A	2.28e-05 ± 1.6e-05 s⁻¹
G29U C58U C68U	3.51e-05 ± 2.3e-05 s⁻¹
A33G C67G	1.91e-05 ± 1.8e-05 s⁻¹

Variants of: B1
Assay: self-cleavage kobs at 10000 uM GlcN6P; higher = faster cleavage; RNA array
Conditions: with glucosamine-6-phosphate
How it was run: as §1

Variant | self-cleavage kobs at 10000 uM GlcN6P
G7U C70G | 0.000759 ± 0.00051 s⁻¹
C58U U69A | 1.53e-05 ± 1.4e-05 s⁻¹
A6G C50G U54C | 2.24e-05 ± 2.2e-05 s⁻¹
C10G | < 1e-05 s⁻¹
A12G A15U G40C | 4.59e-05 ± 2.5e-05 s⁻¹
A6U A15C C70U | 3.19e-05 ± 1.7e-05 s⁻¹
U57A C70G | 1.59e-05 ± 1.2e-05 s⁻¹
G29U C58U C68U | 3.68e-05 ± 2.3e-05 s⁻¹
